Whole data set: some 33,000 sequences, median “E-score (-0.5 to 0.5)” near -0.0059, cut for the highest 2% near 0.26. The list shows a part of the results.
Biological target: T1, Cin5 (UniProt P40917)
T1 sequence: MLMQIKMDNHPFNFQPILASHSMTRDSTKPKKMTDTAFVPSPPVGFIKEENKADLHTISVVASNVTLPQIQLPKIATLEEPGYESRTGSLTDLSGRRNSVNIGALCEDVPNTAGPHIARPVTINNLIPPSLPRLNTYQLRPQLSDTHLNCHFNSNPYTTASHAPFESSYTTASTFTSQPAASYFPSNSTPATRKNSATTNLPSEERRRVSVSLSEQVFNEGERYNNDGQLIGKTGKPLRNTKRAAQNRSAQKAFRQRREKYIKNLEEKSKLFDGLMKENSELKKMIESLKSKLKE
Experiment: PBM E-score (8-mer binding enrichment) (E-score (-0.5 to 0.5)); higher = stronger / more preferred TF binding
Conditions: protein concentration: 100 nM; construct: GST-full length
Outline: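 Universal all-10-mer Agilent arrays, double-stranded by primer extension on fresh or once-stripped slides, were probed with about 100-200 nM GST-tagged yeast transcription factors made by PURExpress. Fluorescent anti-GST detected bound protein, and masliner normalised the scans. E-scores from the Universal PBM Analysis Suite were given to each ungapped eight-base word pooled with its reverse complement.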

Row | Sequence | PBM E-score
1 | AAATCGGG | 0.0762
2 | ATATCTAA | 0.206
3 | CTCGGAGA | -0.0921
4 | GTCAGATA | 0.0332
5 | ACGCTCAC | 0.0871
6 | CTGATTGC | 0.0534
7 | GATACAGC | 0.03
8 | GAACTACC | 0.0721
9 | AGAACAGC | -0.0429
10 | ATCATAGC | 0.157
11 | GAACACGC | 0.036
12 | CTGCTGAC | 0.26
13 | CTAATCTA | 0.00395
14 | GTCCTAGA | -0.273
15 | TGACGTCA | 0.425
16 | AAACCATG | 0.0848
17 | ACCTTTCA | 0.0112
18 | GACGATCC | 0.0343
19 | ACGCGGCG | 0.0773
20 | CTATGGGA | -0.104
21 | AAGTGCCC | -0.0728
22 | AATCTCGC | 0.219
23 | AAGCACAA | 0.186
24 | CAGCATTA | 0.0754
25 | CTAGCCAG | -0.0706

Row | Sequence | PBM E-score
26 | GGCTATAC | -0.0436
27 | AACTTTTG | 0.0961
28 | GATGTGGA | 0.164
29 | GAATCCGA | 0.0296
30 | AGGTGAAC | -0.15
31 | ACCTAACT | 0.0466
32 | CTTCGTAC | 0.0683
33 | ATCATTCC | 0.125
34 | GACCCCCA | -0.492
35 | CCTCAACG | -0.265
36 | CTACAAAC | 0.043
37 | ATGTTCGG | 0.112
38 | ACGTGATC | 0.137
39 | CAAACATA | 0.097
40 | CTATACTA | 0.198
41 | AGACCAAA | -0.0639
42 | AAGGAGAG | -0.317
43 | GCAATTAA | 0.139
44 | AAGGACTC | -0.187
45 | AAACGTAG | 0.0276
46 | AACAGTTG | 0.0695
47 | ACCCGCCT | -0.184
48 | ATTAGCGC | 0.172
49 | ATCCACTC | 0.198
50 | TCGAGCCA | -0.153

Row | Sequence | PBM E-score
51 | CTCCAGTC | -0.113
52 | CGGAAACG | 0.0591
53 | AGTGAGGG | -0.107
54 | ACCTTTTG | -0.103
55 | ACGGCATA | 0.143
56 | GCTATCAC | -0.00053
57 | GTACGCGA | 0.0137
58 | TGGCCACA | -0.00341
59 | ACAAATTG | 0.248
60 | CCTGGTTA | -0.0485
61 | ATATCCGG | 0.066
62 | TCTCAGCA | -0.182
63 | TATTCGGA | 0.145
64 | GAACCGGA | 0.0972
65 | TGGGCGAA | -0.0541
66 | CGACCGAC | -0.028
67 | AGGATGCA | -0.0504
68 | AGTAATCA | 0.312
69 | ATCCGTTA | 0.29
70 | CAAAGACA | 0.0671
71 | ACGTCCTA | 0.0685
72 | GAACGCAC | 0.0283
73 | CCACTCGC | -0.119
74 | CAGTCGGG | -0.107
75 | TACGCACA | 0.0166

Row | Sequence | PBM E-score
76 | CGCTGGGC | -0.295
77 | ACAAATAA | 0.204
78 | CGATCGCA | 0.0985
79 | AGGTCCGC | -0.254
80 | AAAGCTAA | 0.00062
81 | GGACCTGA | -0.107
82 | ATGCAGGG | -0.119
83 | ATTCAGGG | 0.0301
84 | CGCATTGA | 0.109
85 | CGGATGAC | 0.16
86 | CTCTGAAC | -0.215
87 | CGCTTGAC | 0.00564
88 | CGTATTAC | 0.214
89 | GAGTTTAA | 0.128
90 | GACCCTAA | -0.116
91 | ACTTCTTC | 0.0453
92 | AACTACAG | 0.065
93 | GAGCAAGC | -0.199
94 | TCAGAAAA | 0.0264
95 | AAGGTCAC | -0.0793
96 | CCTGCTGA | 0.25
97 | CCCCTCTA | -0.239
98 | AATCTAGT | 0.171
99 | AGGGGGAA | -0.263
100 | AAGGTTGA | 0.0486

Row | Sequence | PBM E-score
101 | CCGAACAA | 0.0637
102 | CGTTCACA | 0.0858
103 | CTCAGCAG | -0.0655
104 | CACCAGGA | -0.0754
105 | TACGGTGA | 0.0829
106 | CTCTGCCC | -0.0596
107 | AAGGACTA | -0.0176
108 | GCCAGGGC | -0.336
109 | AGCGGGCC | -0.04
110 | CGCCCTCC | -0.252
111 | CGAGGGGC | -0.256
112 | CCCACTCG | -0.249
113 | ACCTTTCC | -0.0829
114 | ATTAGTTC | 0.217
115 | TAGGGCCA | -0.121
116 | AAAAGTTG | 0.0199
117 | TAGGCTGA | -0.018
118 | CGCCAATC | -0.00585
119 | ACCGTCAG | -0.157
120 | CAAACTCA | 0.0919
121 | CGCAGGAC | -0.018
122 | CATATATG | 0.114
123 | ATACAGCA | 0.148
124 | TACTTGGA | 0.123
125 | GTGACGGA | 0.0528

Row | Sequence | PBM E-score
126 | CAGCCGGG | -0.135
127 | CGCGACTA | 0.0315
128 | TATGTTAA | 0.121
129 | GGCCCTGA | -0.147
130 | AAAAGACT | -0.205
131 | AATGTCAT | 0.108
132 | GACGAGAC | 0.0172
133 | CGCTCTAA | -0.0655
134 | TAGAGTCA | -0.294
135 | GTTTTCCA | 0.0639
136 | ATGCTCCC | -0.265
137 | ATCGGACG | -0.0954
138 | GGTGAAGA | -0.0933
139 | ACTAGCGG | -0.0618
140 | CAAGGAAA | 0.0493
141 | GATGGCGA | 0.0413
142 | AGAATACA | 0.18
143 | AGGGCAGG | -0.227
144 | CGGGAGGA | -0.0584
145 | ACCTGGCA | -0.0922
146 | ATCTTATG | 0.0173
147 | ACTGGGTA | -0.112
148 | AAATTTCA | -0.14
149 | GTAGACCA | -0.101
150 | AATATCGT | 0.193

Row | Sequence | PBM E-score
151 | TGCTAACA | -0.0305
152 | ATTGGATA | 0.129
153 | CGTTTCAA | -0.0888
154 | GGGCACCC | -0.341
155 | ACCAGTAT | 0.0723
156 | TACCACTA | 0.0357
157 | AAGAAACA | 0.213
158 | ATCAAATC | 0.222
159 | CAGGACAG | -0.0132
160 | AATTGAGA | 0.13
161 | CCGATTAC | 0.23
162 | GAGGCCAA | -0.0394
163 | CGCCCGTA | -0.162
164 | CGCCTCGC | -0.0625
165 | ACCACGAG | -0.0373
166 | AGCTTGTC | -0.161
167 | AATGATCG | 0.0809
168 | ATTTATAG | 0.0626
169 | ATGGGACA | 0.0583
170 | GCACGGCC | -0.0231
171 | ACATTAGC | 0.165
172 | ACTATGAT | 0.199
